PMC11905058, “Novel Leech Antimicrobial Peptides, Hirunipins: Real‐Time 3D Monitoring of Antimicrobial and Antibiofilm Mechanisms Using Optical Diffraction Tomography” (Advanced Science, 2025)

Tests used:
E. coli (KCTC 1682) = experiment: Multipassage drug resistance study; assay type: cell-based, Escherichia coli; settings: continuous exposure at sub-MIC (0.5×MIC)
Experimental: The MICs of hirunipin 2 and antibiotics were determined, and the concentration of each sub‐MIC (0.5×MIC) of E. coli (KCTC 1682) was diluted to 1 × 10^6 CFU mL^−1 with MHB for the next passaged MIC determination. This procedure was repeated fifteen times. Ciprofloxacin and tetracycline were used as the controls.

MDRAB (329-53) = settings: antibiotic in combination with hirunipin 2
Experimental: Synergy testing by checkerboard assay: Briefly, each 96-well microtiter plate was inoculated with two-fold serial dilutions of two antibiotics, ranging from 1/8 MIC to 2 MIC, such that one antibiotic was inoculated in the columns and the other in the rows. Then, MDRAB (329-53) cells were inoculated at a concentration of 1× 10^6 CFU/mL. The plates were incubated overnight under static conditions and observed visually.

## O=C(O)c1cn(C2CC2)c2cc(N3CCNCC3)c(F)cc2c1=O [CIP, Ciprofloxacin]
E. coli (KCTC 1682)
  fold-change in the MICs after 15 passages: 4096 fold
MDRAB (329-53)
  FICI: fractional inhibitory concentration index, FICA + FICB: 0.3125
